Laboratory results taken from US9290528B1, “Light-activated compounds” (University of Kentucky Research Foundation, priority 2013, dated 2016).

How the values were obtained:
[1] = test system: A549 cells; assay: Uptake and subcellular localization by Apoptome microscopy; type: cell-based, human
Protocol: The emission of 9 and 10 was measured in A549 cells using an Apoptome microscope. The relative rates of uptake of each of the complexes were analyzed as a function of time, and both 9 and 10 were visible inside cells as early as 2 hours after compound addition, consistent with the flow data and the ICP-OES results. Images were taken at 2, 8, 18 and 24 hours, and intracellular levels of both complexes appeared to plateau around 8 hours.
Differences in the intracellular localization of 9 and 10 were evaluated by determining colocalization of luminescence of the compound and fluorescent markers of organelles in A549 cells. Overlap in signals between the compounds, cellular nucleus, mitochondria and lysosome was measured over a 24 hour period.

[2] = Singlet oxygen quantum yield; type: physicochemical

Compound | subcellular localization ([1]; absence of light) | subcellular localization ([1]; after irradiation) | ΦΔ (quantum yield for 1O2 production) [2]
O=S(=O)([O-])c1ccc(-c2ccnc3c2ccc2c(-c4ccc(S(=O)(=O)[O-])cc4)ccnc23)cc1.O=S(=O)([O-])c1ccc(-c2ccnc3c2ccc2c(-c4ccc(S(=O)(=O)[O-])cc4)ccnc23)cc1.O=S(=O)([O-])c1ccc(-c2ccnc3c2ccc2c(-c4ccc(S(=O)(=O)[O-])cc4)ccnc23)cc1.[Ru+2] [Compound 10, Ru(bathophenanthorlinedisulfonate)3] | remained primarily in the cytosol | primarily observed in lysosomes | 
Ru(bathophenanthroline)3 [Compound 9] | localized to lysosomes and the mitochondria | induced nuclear localization of the mitochondrial and lysosome markers | 0.42
